Results are given in words; binding and its absence hold for the method and conditions named.

The chains behind the UniProt entries cited, without tags or fusion partners. Residues count along the entry.
UniProt Q44849, residues 23-169: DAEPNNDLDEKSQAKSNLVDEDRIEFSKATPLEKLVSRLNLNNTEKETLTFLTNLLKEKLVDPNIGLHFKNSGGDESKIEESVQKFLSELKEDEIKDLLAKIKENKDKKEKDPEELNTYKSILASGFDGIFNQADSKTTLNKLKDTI

In the test the target is BBA03_(23–169), Borrelia burgdorferi outer surface lipoprotein BBA03 (Borrelia burgdorferi B31) (UniProt Q44849). The test can be described thus: NMR 15N T1/T2 relaxation (rotational correlation time); 13C,15N-labeled BBA03 in 20 mM sodium phosphate, pH 6.8, 50 mM NaCl, 298 K; tau-c from average T1 and T2 of rigid regions, compared with MW/tau-c of reference globular proteins; both purified.

Consider “BBA03_(23–169), Borrelia burgdorferi outer surface lipoprotein BBA03 (from UniProt Q44849 23-169) (domain or fragment)”, for which the binding entry was “no binding (tested: 1.5 to 2 mM)”.

Source of the values: paper PMC7650648.
